The assay addresses purified, recombinant parvovirus B19 capsid proteins VP1 and VP2 (VP1-VP2) (human parvovirus B19) (UniProt P07299). Kind of assay: phage ELISA, constant phage against decreasing VP1-VP2 coat. Background: ELISA stands for enzyme-linked immunosorbent assay.

Results are given in words; binding and its absence hold for the method and conditions named. Some entries that bind do so weakly or less than the wild type.

B1: TN7 isolate B11 (peptide, not shown: large carriers)
peptide: FFCALWPSCHH
Take B1: the binding result is given as “binds”.

B2: TN7 isolate H09 (peptide, not shown: large carriers)
peptide: LFCRFWYNCSA
For B2, the binding entry is recorded as “binds”.

B3: TN7 isolate B12 (peptide, not shown: large carriers)
peptide: LFCHFWYNCDF
B3: the binding result is reported as “binds”.

B4: TN7 isolate E11 (peptide, not shown: large carriers)
peptide: FCRFWYGCHP
In the case of B4, the binding result is listed as “binds”.

B5: TN8 isolate D06 (peptide, not shown: large carriers)
peptide: HFCHFWFGGCPH
B5: the binding result is listed as “binds”.

B6: A01-TN8 phage isolate (peptide, not shown: large carriers)
peptide: FFCSFWHGGCDD
As to B6, the binding entry is recorded as “binds”.

B7: H03-TN9 phage isolate (peptide, not shown: large carriers)
peptide: FCWLWPAHSCH
Turning to B7, the binding entry is “binds”.

B8: TN9 isolate D01 (peptide, not shown: large carriers)
peptide: FCWLWPSSDCF
Turning to B8, the binding entry is given as “binds”.

B9: TN7 isolate C11 (peptide, not shown: large carriers)
peptide: FFCQYWYNCD
On to B9, for which the binding result is given as “binds”.

B10: TN7 isolate F12 (peptide, not shown: large carriers)
peptide: LFCSFWYNCDD
Consider B10, for which the binding result was “binds”.

B11: TN9 isolate A06 (peptide, not shown: large carriers)
peptide: FCQLWWPFQCA
As for B11, the binding result is on record as “binds”.

B12: TN9 isolate F01 (peptide, not shown: large carriers)
peptide: LCPAHWQFWCD
On to B12, for which the binding entry is reported as “binds”.

B13: TN7 isolate D11 (peptide, not shown: large carriers)
peptide: LFCSFWYNCDA
For B13, the binding result was “binds”.

B14: TN9 isolate E03 (peptide, not shown: large carriers)
peptide: FCHLWWPFQCA
Take B14: the binding entry is on record as “binds”.

B15: TN7 isolate A07 (peptide, not shown: large carriers)
peptide: FFCGFWHDCHP
For B15, the binding entry is reported as “binds”.

B16: TN7 isolate A12 (peptide, not shown: large carriers)
peptide: FSCLWFPFCPD
For B16, the binding result is given as “binds”.

B17: TN8 isolate A05 (peptide, not shown: large carriers)
peptide: AFCHFWFHGCDD
Turning to B17, the binding result is reported as “binds”.
